Test results published in patent publication US11564971B2, “Hyaluronic acid derivative having amino acid and steryl group introduced thereinto” (CHUGAI SEIYAKU KABUSHIKI KAISHA, priority 2012, dated 2023).

Assay: Encapsulation of paclitaxel: paclitaxel concentration (solubility) in supernatant (Example 6-1)
Assay type: physicochemical
Details: in the absence of HA derivatives; ultrapure water, 4° C. overnight

CC(=O)O[C@H]1C(=O)[C@@]2(C)[C@H]([C@H](OC(=O)c3ccccc3)[C@]3(O)C[C@H](OC(=O)[C@H](O)[C@@H](NC(=O)c4ccccc4)c4ccccc4)C(C)=C1C3(C)C)[C@]1(OC(C)=O)CO[C@@H]1C[C@@H]2O [paclitaxel, Paclitaxel]
solubility of paclitaxel: 0.6 µg/mL
